Drawing on PubChem BioAssay AID330 (DTP/NCI, 2004), this text covers T/C and survivor count for 29 molecules.

The subject of the test is P388 leukemia ip, CD2F1 mice, survival T/C. The test is described as follows: NCI In Vivo Anticancer Drug Screen. Data for tumor model P388 Leukemia (intraperitoneal) in CD2F1 (CDF1) mice. As to conditions: T/C endpoint: median survival time, higher T/C = longer survival.
[1] abbreviates: dose: 50.0 mg/kg/injection, schedule: Q01DX009 (ip), vehicle: saline with Tween-80.
The mark [2] stands for this setting: dose: 100.0 mg/kg/injection, schedule: Q01DX009 (ip), vehicle: saline with Tween-80.
Setting [3] is: dose: 200.0 mg/kg/injection, schedule: Q01DX009 (ip), vehicle: saline with Tween-80.
Setting [4] is: dose: 200.0 mg/kg/injection, schedule: Q01DX005 (ip), vehicle: saline with Tween-80.
Where [5] appears, read: dose: 200.0 mg/kg/injection, schedule: Q01DX009 (ip), vehicle: Klucel (hydroxypropylcellulose) (HPC).
[6] abbreviates: dose: 200.0 mg/kg/injection, schedule: Q01DX005 (ip), vehicle: Klucel (hydroxypropylcellulose) (HPC).
The mark [7] stands for this setting: dose: 400.0 mg/kg/injection, schedule: Q01DX001 (ip), vehicle: Klucel (hydroxypropylcellulose) (HPC).
[8] abbreviates: dose: 25.0 mg/kg/injection, schedule: Q01DX009 (ip), vehicle: Klucel (hydroxypropylcellulose) (HPC).
Setting [9] is: dose: 50.0 mg/kg/injection, schedule: Q01DX009 (ip), vehicle: Klucel (hydroxypropylcellulose) (HPC).
The mark [10] stands for this setting: dose: 100.0 mg/kg/injection, schedule: Q01DX009 (ip), vehicle: Klucel (hydroxypropylcellulose) (HPC).

SMILES strings stand for the structures. The list shows only some results of the screen, not a fair sample: it gathers tests that were run many times, whatever their T/C, doses with no T/C, and many T/C values between a quarter and a half above the control. Other doses and runs of a compound stand elsewhere. T/C gives the treated animals as a percentage of the vehicle group. Some doses have a count of surviving animals in place of a T/C: the source holds a T/C of zero for them, seemingly a mark for toxic or unscored doses. Some survivor counts are full or nearly so, which does not show that the dose was tolerated: survival well below the control is almost never listed, so the zero probably covers shortened survival too. Survivors were counted at the toxicity check, usually on the fifth day, unless a day is given; later deaths do not show. Schedule codes are those of the source, read here as Q, the interval in days (D) or hours (H), X, the number of doses. Some entries were tested several times; the results are listed from low to high. Where survival is the endpoint, the PubChem record calls one and a half times the control and up active, and a quarter to a half above the control has no call in these data; cut-offs in other NCI protocols can differ. Some T/C values are followed by the survivors on the day toxicity was checked, most often the fifth; without a count, all were alive then.

Turning to `CCC[CH2][Sn]([CH2]CCC)[O][Sn]([Cl])([CH2]CCC)[CH2]CCC`, the T/C (dose: 6.25 mg/kg/injection, schedule: Q01DX009 (ip), vehicle: saline with Tween-80) was 130 % of control. Further, the survivor count is, setting by setting: (dose: 12.5 mg/kg/injection, schedule: Q01DX009 (ip), vehicle: saline with Tween-80) 4 of 6 and 5 of 6; under setting [1], 6 of 6; under setting [2], 1 of 6; under setting [3], 0 of 6.

Turning to `CCC(=O)NC1=CCC(C(C)(C)C)CC1` (configuration not stated), under setting [4], the survivor count was 0 of 6.

Regarding `CC1CCC2(C)CCC3(C)C4=CCC5C(C)(C)C(O)CCC5(C)C4CCC3(C)C2C1C` (configuration not stated), the survivor count (dose: 100.0 mg/kg/injection, schedule: Q04DX003 (ip), vehicle: other) is given as 6 of 6.

For `O=c1c2cc3ccccc3cc2c(=O)n2n1CC=CC2`, under setting [5], the survivor count is recorded as 6 of 6.

`[NH-]C(CCC(N)=O)C(=O)O.[NH-]C(CCC(N)=O)C(=O)O.[Zn+2]` (configuration not stated): the T/C under setting [1] was 130 % of control [5 of 6 alive]. Moreover, the survivor count reads like this: under setting [2], 3 of 6; under setting [3], 0 of 6.

In the case of `CC1(C)OC2C(COC(=O)c3ccccc3)OC(n3cnc4c(=NC(=O)c5ccccc5)n(C(=O)c5ccccc5)cnc43)C2O1` (configuration not stated), the survivor count under setting [6] is 6 of 6.

Consider `CC(=O)Oc1c(OC(C)=O)c(C=O)c2c(OC(C)=O)c(-c3c(C)cc4c(C(C)C)c(OC(C)=O)c(OC(C)=O)c(C=O)c4c3OC(C)=O)c(C)cc2c1C(C)C`, for which the survivor count is 0 of 6 (dose: 100.0 mg/kg/injection, schedule: Q01DX005 (ip), vehicle: Klucel (hydroxypropylcellulose) (HPC)) and 0 of 6 under setting [6].

In the case of `Cc1ccc(N=Nc2c(O)n(-c3ccccc3C)c(=S)n(-c3ccc(Br)cc3)c2=O)cc1`, under setting [3], the survivor count is recorded as 3 of 6.

For the molecule `COC1=C(C)C(=O)c2c(c(C=O)c(Cl)n2C)C1=O`, under setting [7], the survivor count is reported as 3 of 6.

On to `O=C(CNC(=O)c1ccccc1)NCC(=O)NC(Cc1ccccc1)C(=O)O` (configuration not stated), for which, under setting [4], the survivor count is 0 of 6.

Turning to `COC(=O)C1(C)CC2C(C)(CCC3(C)C4=CC=C5C(=CC(=O)C(O)=C5C)C4(C)CCC23C)CC1O` (configuration not stated), the survivor count (dose: 200.0 mg/kg/injection, schedule: Q01DX001 (ip), vehicle: saline with Tween-80) is recorded as 0 of 6 and the survivor count (dose: 400.0 mg/kg/injection, schedule: Q01DX001 (ip), vehicle: saline with Tween-80) is listed as 0 of 6.

On to `O=S=NSc1c(F)c(F)c(F)c(F)c1F`, for which the survivor count under setting [4] is given as 0 of 6.

Take `CC(=O)C[n+]1ccccc1Oc1ccccc1`: the survivor count (dose: 100.0 mg/kg/injection, schedule: Q01DX005 (ip), vehicle: saline) was 1 of 5.

Consider `COc1cc2c(cc1OC)C(Cc1ccc(OC)c(Oc3ccc(CC4c5cc(OC)c(OC)c(O)c5CCN4C)cc3)c1)N(C)CC2` (configuration not stated), for which, under “dose: 160.0 mg/kg/injection, schedule: Q01DX009 (ip), vehicle: Klucel (hydroxypropylcellulose) (HPC)”, the survivor count is 0 of 6.

Consider `Cc1c2cc[n+](CCO)cc2c(C)c2c1[nH]c1ccc(O)cc12`, for which the T/C (dose: 6.25 mg/kg/injection, schedule: Q04DX003 (ip), vehicle: saline) is 145 % of control. Also, the survivor count is, setting by setting: (dose: 12.5 mg/kg/injection, schedule: Q04DX003 (ip), vehicle: saline) 5 of 6; (dose: 25.0 mg/kg/injection, schedule: Q04DX003 (ip), vehicle: saline) 2 of 6; (dose: 50.0 mg/kg/injection, schedule: Q04DX003 (ip), vehicle: saline) 6 of 6; (dose: 100.0 mg/kg/injection, schedule: Q04DX003 (ip), vehicle: saline) 6 of 6; (dose: 200.0 mg/kg/injection, schedule: Q04DX003 (ip), vehicle: saline) 0 of 6.

On to `CC1CCN(SSc2nc3ccccc3s2)CC1`, for which the T/C (dose: 400.0 mg/kg/injection, schedule: Q01DX009 (ip), vehicle: saline with Tween-80) was 128 % of control.

As to `O=C1OC(Cc2ccccc2)=C(Cl)C(Cl)(Cc2ccccc2)C1Cl` (configuration not stated), the survivor count under setting [7] is recorded as 4 of 6.

As for `CCC(=[Se])N(CC)CC`, the survivor count (dose: 1.56 mg/kg/injection, schedule: Q01DX009 (ip), vehicle: Klucel (hydroxypropylcellulose) (HPC)) is recorded as 0 of 6; the survivor count (dose: 3.12 mg/kg/injection, schedule: Q01DX009 (ip), vehicle: Klucel (hydroxypropylcellulose) (HPC)) is given as 5 of 6; the survivor count (dose: 6.25 mg/kg/injection, schedule: Q01DX009 (ip), vehicle: Klucel (hydroxypropylcellulose) (HPC)) is reported as 0 of 6; the survivor count (dose: 12.5 mg/kg/injection, schedule: Q01DX009 (ip), vehicle: Klucel (hydroxypropylcellulose) (HPC)) is 0 of 6; the survivor count under setting [8] is listed as 0 of 6; the survivor count under setting [9] is 0 of 6. The survivor count under setting [10] is 0 of 6 and the survivor count under setting [5] is reported as 0 of 6.

With `O=c1[nH]nc2ccc(n[nH]c1=O)c1ccccc21`, the survivor count is reported as 1 of 6 (dose: 100.0 mg/kg/injection, schedule: Q01DX005 (ip), vehicle: saline with Tween-80) and 0 of 6 under setting [4].

Take `O=c1n(-c2ccccc2)c(=O)n2n1C1C3C4C3C2C2(F)C4C12` (configuration not stated): the survivor count by setting is: (dose: 12.0 mg/kg/injection, schedule: Q04DX002 (ip), vehicle: Klucel (hydroxypropylcellulose) (HPC)) 4 of 6; (dose: 25.0 mg/kg/injection, schedule: Q04DX002 (ip), vehicle: Klucel (hydroxypropylcellulose) (HPC)) 0 of 6; (dose: 50.0 mg/kg/injection, schedule: Q04DX002 (ip), vehicle: Klucel (hydroxypropylcellulose) (HPC)) 0 of 6; (dose: 100.0 mg/kg/injection, schedule: Q04DX002 (ip), vehicle: Klucel (hydroxypropylcellulose) (HPC)) 0 of 6; (dose: 200.0 mg/kg/injection, schedule: Q04DX002 (ip), vehicle: Klucel (hydroxypropylcellulose) (HPC)) 0 of 6; (dose: 400.0 mg/kg/injection, schedule: Q04DX002 (ip), vehicle: Klucel (hydroxypropylcellulose) (HPC)) 0 of 6.

`CC(C)(C)SC(=O)C[Si](C)(C)C`: for the setting “dose: 400.0 mg/kg/injection, schedule: Q04DX003 (ip), vehicle: saline with Tween-80”, the survivor count was 6 of 6.

For the molecule `CC(C)NC(=O)OCc1c(COC(=O)NC(C)C)c(-c2ccc(F)c(F)c2)n2c1CCC2`, the T/C is 126 % of control (dose: 1.56 mg/kg/injection, schedule: Q01DX009 (ip), vehicle: distilled water + Tween-80) and 149 % of control (dose: 6.25 mg/kg/injection, schedule: Q01DX009 (ip), vehicle: distilled water + Tween-80). The survivor count is 6 of 6 (dose: 100.0 mg/kg/injection, schedule: Q01DX009 (ip), vehicle: distilled water + Tween-80) and 3 of 6 (dose: 200.0 mg/kg/injection, schedule: Q01DX009 (ip), vehicle: distilled water + Tween-80).

Regarding `Cc1oc2c(c(=O)c1C)C1CCC(C2)N1C` (configuration not stated), the survivor count under setting [6] was 0 of 6.

Take `OC1(c2ccc(F)cc2)CCNCC1`: under “dose: 240.0 mg/kg/injection, schedule: Q01DX005 (ip), vehicle: Klucel (hydroxypropylcellulose) (HPC)”, the survivor count is on record as 0 of 6.

Consider `Cc1cccc(NC(=O)CS)n1`, for which the survivor count by setting is: under setting [10], 6 of 6; under setting [5], 0 of 6.

On to `N#C/C1=C(\C#N)CCC2(C#N)C3C=CC(O3)C2(C#N)CC1` (configuration not stated), for which the survivor count is 2 of 6 under setting [8], 0 of 6 under setting [9] and 0 of 6 under setting [10].

Turning to `CCCCCC(O)C1C(=O)OC(C)C(O)/C=C/C=C/C=C/C=C/C=C(\C)C(O)C(O)C(O)CC(O)CC(O)CC(O)CC(O)CC1O` (configuration not stated), the survivor count reads like this: (dose: 16.0 mg/kg/injection, schedule: Q01DX010 (ip), vehicle: saline) 3 of 6; (dose: 32.0 mg/kg/injection, schedule: Q01DX010 (ip), vehicle: saline) 0 of 6.

As for `O=C(O)C(Cc1ccc(OC(=O)C(F)(F)F)cc1)NC(=O)C(F)(F)F` (configuration not stated), the survivor count (dose: 200.0 mg/kg/injection, schedule: Q04DX003 (ip), vehicle: saline with Tween-80) was 5 of 6.

Take `CN1CCC/C1=C/C(=O)c1ccc(Cl)cc1`: the T/C (dose: 400.0 mg/kg/injection, schedule: Q04DX003 (ip), vehicle: saline) is 125 % of control.
